The list shows a part of the results. Further columns of the screen follow, without active or inactive calls. Compounds called inactive in the main read-out are mostly missing here. Potencies come from curve fits of mixed quality, noted in brackets.
Assay: qHTS Assay to Find Inhibitors of Chronic Active B-Cell Receptor Signaling
Conditions: ABC-DLBCL IkBa-CBG/CBR reporter, luminescence ratio (green luciferase fused to IkBa over red control in TMD8 lymphoma cells), 4 h
In short: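 TMD8 ABC-DLBCL cells carrying doxycycline-inducible green luciferase fused to IkappaBalpha plus unfused red luciferase were exposed to compounds (up to 46 uM) for 4 hrs at 37C. Activity came from the overlap-corrected green/red luminescence ratio.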

[1] = measured here: CBR red luminescence, cell number
[2] = measured here: IkBa-CBG green luminescence

## O=C(Nc1cccc2ncccc12)c1cc2ccccc2o1
[1]
  AC50: 12.6 µM [falling, partial curve, poor fit]

## c1ccc(Nc2nc(-c3ccncc3)cs2)nc1
[1]
  AC50: 0.651 µM [falling, partial curve, poor fit]

## CC1(c2ccccc2Cl)NC(=O)N(CC(=O)Nc2ccc(N3CCCCC3)cc2)C1=O (configuration not stated)
[1]
  AC50: 4.11 µM [rising, partial curve]

## O=C(Nc1ccc([N+](=O)[O-])cc1)Nc1ccc2[nH]c(=O)[nH]c2c1
[1]
  AC50: 12.6 µM [rising, partial curve, poor fit]

## CCOc1ccc(N(CC(=O)Nc2ccccc2OC)S(=O)(=O)c2ccccc2)cc1
[2]
  AC50: 8.91 µM [falling, partial curve]

## CCc1cccc(NC(=O)C2CCCC2)c1
[1]
  AC50: 25.9 µM [rising, single point]

## Cc1oc(-c2ccc(-c3ccccc3)cc2)nc1CN(C)C1CCOC1 (configuration not stated)
[1]
  AC50: 0.251 µM [falling, full curve]

## CCOCCCNC(=S)N(CCO)Cc1cc2cc3c(cc2[nH]c1=O)OCCO3
[1]
  AC50: 20 µM [falling, partial curve, poor fit]

## CN1/C(=C\C(=O)c2cccs2)Sc2ccccc21
[1]
  AC50: 35.5 µM [falling, single point]

## Cc1c(NC(=O)c2cc(Br)ccc2Cl)cccc1-n1cnnn1
[1]
  AC50: 1.16 µM [rising, single point]

## Cc1ccc(C(=O)NC(=S)N2CCN(c3ccccc3F)CC2)cc1
[1]
  AC50: 3.26 µM [rising, full curve, poor fit]

## COc1cc(/C=C(/C#N)C(=O)Nc2ccccc2)ccc1OCc1ccc(C(=O)O)cc1
[1]
  AC50: 10 µM [falling, partial curve]

## CCCNC(=O)COCc1cc(-c2ccc(F)cc2)on1
[1]
  AC50: 17.8 µM [falling, single point]

## Cc1ccc(SCC(=O)OCc2csc(CC(=O)Nc3ccccc3C)n2)cc1C
[1]
  AC50: 13 µM [falling, partial curve, poor fit]

## COc1cc2[nH]c(C(=O)N3CCN(c4ccc(F)cc4)CC3)cc2c(OC)c1OC
[1]
  AC50: 6.31 µM [rising, single point]

## COc1ccc(C(=O)CCS(=O)(=O)c2ccc(C)cc2)cc1
[1]
  AC50: 35.5 µM [falling, single point]

## COc1ccc(S(=O)(=O)Nc2cc(Sc3ncn[nH]3)c(O)c3ccccc23)cc1
[1]
  AC50: 2.59 µM [falling, full curve]
[2]
  AC50: 5.17 µM [rising, full curve, poor fit]

## CC(NC(=O)CCCN1C(=O)c2ccccc2C1=O)c1ccc2c(c1)CCCC2 (configuration not stated)
[1]
  AC50: 2.31 µM [rising, full curve, poor fit]

## O=C(NCCc1ccccc1)c1cc2ccccc2oc1=O
[1]
  AC50: 6.31 µM [falling, full curve]

## COc1ccc(/C=N/NC(=S)Nc2ccccc2)cc1COc1ccc(F)cc1
[1]
  AC50: 9.2 µM [rising, partial curve, poor fit]

## N#CC1=C(SCC(=O)NC23CC4CC(CC(C4)C2)C3)NC(=O)C(C#N)C12CCCCC2 (configuration not stated)
[1]
  AC50: 20.6 µM [falling, single point]

## COc1ccc(C2NC(=S)N3C(c4ccc(OC)cc4)NC(=S)N23)cc1 (configuration not stated)
[1]
  AC50: 0.00411 µM [rising, full curve, poor fit]

## O=S(=O)(N/N=C\c1cccnc1)c1ccccc1
[1]
  AC50: 29.1 µM [falling, single point]

## Cc1ccn2c(Nc3ccccc3)c(-c3ccccn3)nc2c1
[1]
  AC50: 35.5 µM [falling, single point]

## c1ccc(CNc2ncnc3c2cnn3Cc2ccccc2)cc1
[1]
  AC50: 9.2 µM [rising, partial curve, poor fit]

## COc1ccc(/C=N/Nc2ccc(C(=O)O)cc2)cc1OC
[1]
  AC50: 0.0178 µM [falling, partial curve, poor fit]

## CCOC(=O)c1c(C)[nH]c(C(=O)OCC(=O)Nc2ccc(OC)c(Cl)c2)c1C
[1]
  AC50: 2.31 µM [rising, partial curve, poor fit]

## Nc1ccc(Sc2nnnn2-c2ccccc2)c(Cl)c1
[1]
  AC50: 29.1 µM [falling, single point]

## COC(=O)c1ccc(NC(=O)CN(c2ccc(C)cc2)S(=O)(=O)c2c(C)nn(C)c2C)cc1
[1]
  AC50: 0.411 µM [falling, partial curve, poor fit]

## CC(C)(C)NC(=O)C(=O)NNC(=O)c1cccc(Br)c1
[1]
  AC50: 35.5 µM [falling, single point]

## Cc1ccc(C(=O)Nc2cccc(N(C)S(C)(=O)=O)c2)cc1S(=O)(=O)Nc1ccccc1
[1]
  AC50: 25.1 µM [falling, single point]

## CCOC(=O)C1CCN(C(=O)c2ccc(N3CCOCC3)c([N+](=O)[O-])c2)CC1
[1]
  AC50: 1.3 µM [falling, partial curve, poor fit]

## Cc1ccccc1NC(=S)c1ccc2ccccc2n1
[1]
  AC50: 35.5 µM [rising, single point]
[2]
  AC50: 35.5 µM [falling, partial curve, poor fit]

## O=C(NC1CCCCCC1)c1cccs1
[1]
  AC50: 10 µM [falling, partial curve, poor fit]

## CCCN1Cc2cccc(C(=O)NCCc3ccccc3)c2C1=O
[1]
  AC50: 3.55 µM [rising, partial curve, poor fit]

## COc1ccccc1N1CCN(C(=O)C(=O)N/N=C/c2cccc(O)c2)CC1
[1]
  AC50: 8.91 µM [rising, partial curve, poor fit]

## COc1ccc(NC(=O)c2c(NCc3cccs3)sc3c2CCCC3)c(OC)c1
[1]
  AC50: 7.94 µM [rising, partial curve, poor fit]

## COc1cccc(C(=O)NC(=S)Nc2cccnc2)c1
[1]
  AC50: 7.31 µM [falling, partial curve]

## Cc1ccc2nc(NC(=S)NC(=O)c3cccs3)sc2c1
[1]
  AC50: 1.12 µM [falling, partial curve, poor fit]

## CCOP(=O)(OCC)c1nc(-c2cccc3ccccc23)oc1NCc1ccc(OC)cc1
[1]
  AC50: 35.5 µM [falling, partial curve, poor fit]

## Cc1ccc(C2CC(c3cccs3)=NN2C(=O)CSC2=NCCS2)cc1 (configuration not stated)
[1]
  AC50: 35.5 µM [falling, single point]

## CCCNC(=O)Cn1c(=O)/c(=C\c2ccc(-c3ccc([N+](=O)[O-])cc3)o2)s/c1=C\C(=O)C(C)(C)C
[1]
  AC50: 0.13 µM [rising, full curve, poor fit]

## CC(=O)OCCCNc1cc(SCc2ccco2)c2nonc2c1[N+](=O)[O-]
[1]
  AC50: 23.1 µM [falling, single point]

## O=C(/C=C/c1ccccc1)Oc1coc(CSc2ncccn2)cc1=O
[1]
  AC50: 7.94 µM [rising, partial curve, poor fit]

## COc1ccc2[nH]c(C(=O)Nc3ccccc3Cl)cc2c1
[1]
  AC50: 22.4 µM [falling, single point]

## Cc1ccc(C)c(NC(=O)CN(C)C(=O)c2cccc(Oc3ccccc3)c2)c1
[1]
  AC50: 5.17 µM [falling, single point]

## O=C(O)Cc1sc(-c2cccnc2)nc1-c1ccc(Br)cc1
[1]
  AC50: 25.1 µM [falling, single point]

## CCNC(=S)N(CCc1c(C)[nH]c2ccc(Cl)cc12)Cc1ccco1
[1]
  AC50: 35.5 µM [falling, single point]

## O=C(COC(=O)c1ccc([N+](=O)[O-])o1)NC1CCCC1
[1]
  AC50: 29.1 µM [rising, single point]

## Cc1nnc2ccc(-c3cccc(NS(=O)(=O)c4cc(F)ccc4F)c3)nn12
[1]
  AC50: 0.164 µM [rising, full curve, poor fit]

## Nc1n[nH]c(N)c1N=Nc1ccc(Cl)cc1
[1]
  AC50: 0.92 µM [rising, full curve, poor fit]

## CC(C(=O)N1CCN(c2ccc([N+](=O)[O-])cc2)CC1)N1C(=O)C2CC=CCC2C1=O (configuration not stated)
[1]
  AC50: 0.708 µM [rising, full curve, poor fit]

## COCCN(Cc1cc2cc3c(cc2nc1Cl)OCO3)C(=O)Nc1ccc(F)cc1
[1]
  AC50: 29.1 µM [rising, single point]

## CNC(=O)c1ccc(-c2ccccc2)s1
[1]
  AC50: 28.2 µM [falling, single point]

## CCCCSc1nnc(-c2ccc(C)cc2)c2ccccc12
[1]
  AC50: 29.1 µM [rising, single point]

## Nc1ncc2c(n1)-c1cc(Cl)ccc1SC2
[1]
  AC50: 5.01 µM [falling, partial curve, poor fit]

## O=S(=O)(c1ccc(Br)cc1)N1CCCN(Cc2cccc(F)c2)CC1
[1]
  AC50: 32.6 µM [falling, single point]

## C/C=C/C(=O)NCCc1ccc(OC)c(OC)c1
[1]
  AC50: 35.5 µM [rising, single point]

## Clc1ccccc1Cn1nc(-c2ccccc2)nc1-c1ccccc1
[1]
  AC50: 18.4 µM [rising, partial curve, poor fit]

## Cc1ccc(COC(=O)c2cc([N+](=O)[O-])ccc2N2CCOCC2)cc1
[1]
  AC50: 11.2 µM [rising, partial curve]
[2]
  AC50: 10 µM [falling, partial curve]

## CNC(=O)c1ccccc1Nc1ccc(SC(F)F)cc1
[1]
  AC50: 7.08 µM [rising, partial curve]

## Cc1ccsc1C(=O)OCc1nnc(-c2ccccc2)o1
[1]
  AC50: 11.6 µM [falling, partial curve, poor fit]

## CCn1c(COc2cccc(C)c2)nnc1SCC(=O)Nc1cccc(C(=O)OC)c1
[1]
  AC50: 25.1 µM [falling, single point]

## O=C(Cc1cccc2ccccc12)N1CC[C@@]2(O)CCCC[C@H]2C1
[1]
  AC50: 11.2 µM [falling, partial curve]

Source: PubChem BioAssay AID493014 (National Center for Advancing Translational Sciences (NCATS), 2011)
